# Among all 360,000 compounds or so, about 610 (0.17%) were called active. Inconclusive means that the source gave no clear call. Such entries were picked first, then a sample of the others. Rule as the data show it: active = inhibition above about 30%; inconclusive = no clear call, values can overlap the other calls; inactive = below that.
# System: Botulinum neurotoxin type A light chain protease (Clostridium botulinum A str. ATCC 3502)
# Experiment: blockers of BoNT/A LC substrate cleavage – biochemical, flow cytometry, MLPCN library, primary screen (AID 588499); also: plate controls were buffer without enzyme for full effect and enzyme alone for no effect
# Conditions: multiplex microsphere protease substrate cleavage, at 10 µM, active compounds read high
row,Compound,inhibition
1,N/C(=N\OC(=O)Nc1ccccc1)c1ncc([N+](=O)[O-])s1,inconclusive: -0.7%
2,CCOC(=O)c1cccc(NC(=O)CSc2nnc(C)n2CC2CCCO2)c1 (centres undefined),inactive: -0.1%
3,CC(C)(C)c1ccc(SCCc2ccncc2)cc1,inconclusive: -2.2%
4,CCCCN(CC)S(=O)(=O)c1ccccc1,inconclusive: -339%
5,CCOC(=O)c1c(NC(=O)c2ccccc2Br)sc2c1CCc1ccccc1-2,inconclusive: 1.6%
6,CCOC(=O)C1(C)NC(c2ccco2)C2C(=O)N(CC)C(=O)C21 (centres undefined),inactive: -0.3%
7,Cc1ccc(NC(=O)CN(C)C(=O)c2cc(S(=O)(=O)N(C)C)ccc2N2CCCC2)cc1,inconclusive: 7.2%
8,CCCc1ccc(OCc2ccc(C(=O)N3CCN(c4ccccn4)CC3)o2)c(OC)c1,inconclusive: 1.8%
9,CCCCc1cc(=O)oc2c(CN(CC)CC)c(O)c(Cl)cc12,inactive: -0.3%
10,COc1cc(C2C(C#N)=C(N)Oc3c2oc(CO)cc3=O)ccc1OC(C)C (centres undefined),inconclusive: 0.3%
11,Cc1cc2cc(CNC(=O)Nc3cccc(Cl)c3)ccc2n1C,active: 48.4%
12,Cc1cc(C)cc(NC(=O)C(=O)NCC2CCCN2S(=O)(=O)c2cccs2)c1 (centres undefined),inconclusive: -33.3%
13,O=C(Nc1ccc2nn(-c3ccccc3)nc2c1)c1ccc2c(c1)OCO2,inconclusive: 16.9%
14,O=C1NCCC/C1=N/Nc1cc(F)ccc1F,inconclusive: -38.7%
15,Cc1ccc(C)c(OCC(=O)Nc2nc3ccc([N+](=O)[O-])cc3s2)c1C,inconclusive: -0.4%
16,O=c1c2c([N+](=O)[O-])cc([N+](=O)[O-])cc2sn1Cc1ccccc1,active: 49.9%
17,COc1cc2c(cc1OC)C(c1cc3cc(OC)c(OC)cc3[nH]c1=O)N(C(=O)C1CC1)CC2 (centres undefined),inactive: 1%
18,CCN1C(=O)CC(N2CCC(Cc3ccccc3)CC2)C1=O (centres undefined),inconclusive: 0.7%
19,O=c1cc(CSc2nnc(-c3ccco3)o2)c2ccccc2[nH]1,inconclusive: -1.2%
20,O=C(O)CCC(=O)OCC1CCCCC1,inconclusive: 2.9%

# Copied from the list:
# Value for CC(C)(C)c1ccc(SCCc2ccncc2)cc1 under inhibition: inconclusive: -2.2%
# Value for CCOC(=O)c1cccc(NC(=O)CSc2nnc(C)n2CC2CCCO2)c1 (centres undefined) under inhibition: inactive: -0.1%

# (listing goes on)

row,Compound,inhibition
1,Cc1cccc(NC(=O)NCC(F)(F)F)n1,inconclusive: 3.7%
2,COc1ccc(C(=O)NCc2ccc3c(c2)cc(C)n3C)cc1OC,active: 92.3%
3,CC(=O)c1ccccc1C(=O)N1CCCC(C(=O)c2ccc(C(F)(F)F)cc2)C1 (centres undefined),inactive: 1.1%
4,O=C(O)c1ccnc(C(=O)O)c1,inconclusive: 2.6%
5,Cc1occc1C(=O)NNC(=S)Nc1ccccc1,inconclusive: 5.5%
6,Cc1ccccc1C(=O)N1CCN(C(c2ccccc2)c2ccccc2)CC1,inconclusive: -0.7%
7,S=C(Nc1ccc(Oc2ccccc2)cc1)N1CCOCC1,inconclusive: -4.2%
8,CC(=O)NC(Cc1ccccc1)C(=O)NC1CCN(C(=O)c2ccc([N+](=O)[O-])cc2)CC1 (centres undefined),inactive: -0.1%
9,Cc1ccccc1C(=O)O/N=C(\N)c1ccc([N+](=O)[O-])cc1,inconclusive: -2.8%
10,CCCc1cc(=O)[nH]c2nnc(SCC(=O)NC3CCCCC3)n12,inconclusive: -2.1%
11,COc1ccccc1N(CN1CCCC1=O)C(=O)c1c(F)cccc1Cl,inconclusive: -2.8%
12,CCc1ccc(C(=O)COC(=O)C2CCN(c3ccc(C(F)(F)F)cn3)CC2)cc1,inactive: 6.6%
13,Cc1ccc(C(=O)COc2cc(C)nc3nncn23)cc1,inconclusive: -31.7%
14,CN(C)c1ncnc(N(C)C)c1[N+](=O)[O-],inconclusive: -16.6%
15,C[C@H](CO)N1C[C@H](C)[C@H](CN(C)C(=O)C2CC2)OCc2cnnn2CCCC1=O,inactive: -0.6%
16,CC(=O)Nc1ccc(S(=O)(=O)Nc2nc3ccccc3nc2N2CCCCCC2)cc1,inconclusive: -1.8%
17,CCCCC1CCC(C(=O)Nc2ccccc2)CC1 (centres undefined),inconclusive: -0.1%
18,O=C(Cn1cnc2c(nnn2-c2cccc(Cl)c2)c1=O)N1CCCC1,inconclusive: 3.5%
19,CCOC(=O)C(=CNc1ccccc1C)C(=O)OCC,inactive: -0.7%
20,CC(C)c1cc(C(=O)Nc2cccc(Cl)c2)no1,inactive: 14.2%

# Gathered by group, the compounds so far containing a COOH group.
row,Compound,inhibition
20,O=C(O)CCC(=O)OCC1CCCCC1,inconclusive: 2.9%
4,O=C(O)c1ccnc(C(=O)O)c1,inconclusive: 2.6%

# Remaining list, next part.

row,Compound,inhibition
1,C=CCn1c(-c2cccc(OC)c2)nc2nc3ccccc3nc21,inconclusive: 2.3%
2,O=[N+]([O-])c1cc(/C=N/O)ccc1SCc1ccccc1,inconclusive: -2.7%
3,COc1ccc(CNC(=O)/C=C/c2cc([N+](=O)[O-])ccc2OC(F)F)cc1OC,inconclusive: 10.6%
4,CN(/N=C/c1ccc(O)cc1O)c1ncc(C(F)(F)F)cc1Cl,inconclusive: 6.2%
5,Cc1ccc(N(CC(=O)N2CCOCC2)S(C)(=O)=O)cc1C,inconclusive: 0.9%
6,Cc1sc2c(c1C)C(O)=C(C(=O)Nc1ccccc1)S(=O)(=O)N2C,inconclusive: 15.4%
7,COc1cccc(-c2c(-c3cc(OC)cc(OC)c3)n(C)c3ccc(Br)cc23)c1,inactive: -0.6%
8,COc1cc(-c2ccc3c(=O)c4ccccc4sc3c2)cc(OC)c1OC,inactive: 1.1%
9,O=C(Nc1ccccc1)C1CCN(c2nccs2)CC1,active: 40%
10,O=C(CSc1nnc(-c2cccc(Cl)c2)o1)Nc1ccc2c(c1)OCCO2,inconclusive: -0.5%
11,O=C(O)CC(Cn1[nH]nnc1=S)c1ccccc1 (centres undefined),inconclusive: 0.1%
12,Cc1ccc(C)c2[nH]c(=O)c(CN(CC3CCCO3)C(=O)NC3CCCCC3)cc12 (centres undefined),inconclusive: 3.2%
13,Cc1[nH]c2ccccc2c1/C=N/NC(=S)NC(C)C,active: 59.2%
14,O=C(Cc1ccc(S(=O)(=O)N2CCOCC2)s1)N1CCN(S(=O)(=O)c2cccc([N+](=O)[O-])c2)CC1,inactive: 1.7%
15,CC(=NNC(N)=S)c1ccc2cc3c(cc2c1)OCO3,inactive: -0.4%
16,CC(=NNc1nc2ccccc2o1)c1cc2ccccc2cn1,active: 50.8%
17,CC(C)C(=O)Nc1cccc(C(=O)NCCc2ccc(S(N)(=O)=O)cc2)c1,inconclusive: 11.2%
18,CCCCCC(=O)NNC(=O)c1ccc(-c2ccccc2)cc1,inconclusive: 1.5%
19,CC1CCN(C(c2ccccc2)c2nnnn2C(C)(C)C)CC1 (centres undefined),inactive: -1.4%
